Assay results: article PMC12070812
No constants are given. Whether binding was seen depends on the method and setting. Binding seen in cells or lysates may run through a third protein. Binding calls can cover weak binding; strength is not graded here.

Sequences of proteins named here, by UniProt entry; tags and fusion partners are left off. A change or cut given only in a name is not applied to a line headed by its entry.
UniProt Q9VUH8: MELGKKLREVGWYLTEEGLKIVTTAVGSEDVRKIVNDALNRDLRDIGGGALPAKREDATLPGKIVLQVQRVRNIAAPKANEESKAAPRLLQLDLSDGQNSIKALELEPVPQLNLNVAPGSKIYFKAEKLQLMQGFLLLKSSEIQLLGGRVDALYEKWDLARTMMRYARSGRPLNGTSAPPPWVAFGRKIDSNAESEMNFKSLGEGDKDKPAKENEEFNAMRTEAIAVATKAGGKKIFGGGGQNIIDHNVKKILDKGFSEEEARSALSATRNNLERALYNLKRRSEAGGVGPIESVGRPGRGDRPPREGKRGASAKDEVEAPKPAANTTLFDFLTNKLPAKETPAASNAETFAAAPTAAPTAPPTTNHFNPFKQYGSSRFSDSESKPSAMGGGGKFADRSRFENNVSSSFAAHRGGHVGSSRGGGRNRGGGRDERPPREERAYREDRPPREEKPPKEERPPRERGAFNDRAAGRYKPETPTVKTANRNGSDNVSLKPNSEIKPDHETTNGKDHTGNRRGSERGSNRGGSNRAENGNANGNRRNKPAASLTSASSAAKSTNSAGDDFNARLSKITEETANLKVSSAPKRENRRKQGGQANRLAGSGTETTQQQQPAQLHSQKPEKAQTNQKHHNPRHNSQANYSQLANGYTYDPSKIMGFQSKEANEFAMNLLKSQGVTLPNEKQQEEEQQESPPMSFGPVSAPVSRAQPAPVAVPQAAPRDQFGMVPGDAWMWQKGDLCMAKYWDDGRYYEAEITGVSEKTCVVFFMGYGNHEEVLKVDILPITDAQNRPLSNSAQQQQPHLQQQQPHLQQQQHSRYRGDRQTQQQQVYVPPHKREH

Target: TDRD3 (Drosophila) (Drosophila (endogenous in fly ovaries and OSS cells)) (UniProt Q9VUH8)
Experiment: co-IP; reciprocal TDRD3 and Piwi IP from OSS cell lysates (Ripa buffer); IP buffer 20mM Hepes pH 7.9, 200mM NaCl, 0.1% NP40, 4 hours at 4 C; Western blot of the eluates

Row | Binder | binding
1 | SpnE (protein, UniProt Q9VF26 1-1434) MDQEVMDFFDFSKELKRVAAAPQGYISSDPRLMATKFKSSEVPNRELIGTDYVSKIVAKEKCLLNGTLLNEQPQGKRIRTLDDLDTDDEGEETEIRRDDEYYKKFRFNLNRDKNLSIYAKREEILAAINAHPVVIIKGETGCGKTTQVPQYILDEAYKSGKYCNIVVTQPRRIAAISIANRVCQEREWQQNTVCSFQVGLHRPNSLEDTRLLYCTTGVLLNNLINNKTLTHYTHIVLDEVHERDQNMDFLLIVVRRLLATNSRHVKIILMSATIDAKELSDYFTTTNSIPPVITTNHRRKHSIEKFYRDQLGSIIWNEEDVGHQQVPEINKHGYRAAVKIIVIIDNMERKAAIQSRQSYDEALRYGAVLIFLPGIYEIDTMAENLTCMLENDPNIKVSIVRCFSLMTPENQRDVFNPPPPGFRKIILTTNIAESSITVPDVSYVIDFCLAKVKVTDTASSFSSLRLTWASKANCRQRAGRVGRLRSGRVYRMVNKHFYQREMPEFGIPEMLRLPLQNSVLKAKVLNMGSPVEILALALSPPNLSDIHNTILLLKEVGALYLTVDGIYDPLDGDLTYWGTIMSRLPLDTRQSRLIILGYIFNMLEEAIIIAAGLSTPGLFAHEGGRSQLGDSFWMHYIFSDGSGSDLVAIWRVYLTYLNIVENGHDQESAIRWAKRFHVSLRSLKEIHLLVQELRVRCTHLGLIPFPVNPNQMMDDREKAIMLKVIIAGAFYPNYFTRSKESCADTDRNIYQTISGHDPCRTVYFTNFKPAYMGELYTRRIKELFQEVRIPPENMDVTFQEGSQKVFVTFKQDDWIEGSSKYVPVSGRVQSEVYKAVMMRQNRVERPIHIMNPSAFMSYVQQRGIGDVIEGRWIPPTKPLNVELLALPSVFDKTISGSITCIVNCGKFFFQPQSFEECIRNMSEIFNAPQQLRNYVTNASAIAKGMMVLAKRDSYFQRATVIRPENQSNRQPMFYVRFIDYGNCTLLPMQLMRLMPRELTEQYGDLPPRVFECRLAMVQPSSVVSGNNRWSTAANDMLKTVAQCGLIDIEVYSLFNNVAAVLIHMRDGIINDKLVELMLCRRSDEDYMSRKDHDFRLRRQESARNLSTAQRQQINEEYLRSCQLPQDHDLPPPPLEKCKTVVMLKGPNSPLECTMRSITRVGLSKRVNIDHLSVNALLLDADPQDHHDHLIVAHEIAESRNGQTLTARGTTLMPNVQGFGALMVMLFSPTMQLKCNKEGTSYVSVLGGLGCDPDTNEPYFAEHDVLINLDVNILEDDVILINQIRYYIDSVFFNFKEENNPAVSVNERVSIYTQLRSLINRLLCKDRRYIERNMSNADFEWETNPELPLPNEPFGKRAIFPMHSLTELQEEDTGRLVQLRENCSMLHKWRNFEGTLPHMTCKLCNQLLESVPQLRLHLLTILHRDREKQIDYCNQ | binds
2 | Piwi (protein, UniProt Q9VKM1 1-843) MADDQGRGRRRPLNEDDSSTSRGSGDGPRVKVFRGSSSGDPRADPRIEASRERRALEEAPRREGGPTERKPWGDQYDYLNTRPAELVSKKGTDGVPVMLQTNFFRLKTKPEWRIVHYHVEFEPSIENPRVRMGVLSNHANLLGSGYLFDGLQLFTTRKFEQEITVLSGKSKLDIEYKISIKFVGFISCAEPRFLQVLNLILRRSMKGLNLELVGRNLFDPRAKIEIREFKMELWPGYETSIRQHEKDILLGTEITHKVMRTETIYDIMRRCSHNPARHQDEVRVNVLDLIVLTDYNNRTYRINDVDFGQTPKSTFSCKGRDISFVEYYLTKYNIRIRDHNQPLLISKNRDKALKTNASELVVLIPELCRVTGLNAEMRSNFQLMRAMSSYTRMNPKQRTDRLRAFNHRLQNTPESVKVLRDWNMELDKNVTEVQGRIIGQQNIVFHNGKVPAGENADWQRHFRDQRMLTTPSDGLDRWAVIAPQRNSHELRTLLDSLYRAASGMGLRIRSPQEFIIYDDRTGTYVRAMDDCVRSDPKLILCLVPNDNAERYSSIKKRGYVDRAVPTQVVTLKTTKNRSLMSIATKIAIQLNCKLGYTPWMIELPLSGLMTIGFDIAKSTRDRKRAYGALIASMDLQQNSTYFSTVTECSAFDVLANTLWPMIAKALRQYQHEHRKLPSRIVFYRDGVSSGSLKQLFEFEVKDIIEKLKTEYARVQLSPPQLAYIVVTRSMNTRFFLNGQNPPPGTIVDDVITLPERYDFYLVSQQVRQGTVSPTSYNVLYSSMGLSPEKMQKLTYKMCHLYYNWSGTTRVPAVCQYAKKLATLVGTNLHSIPQNALEKKFYYL | binds
